Results reported in the supplement of paper PMC8183993.
Counter-ions that a name gives are not always drawn. This list holds what a sample rich in lowest values left over.

system: U2OS; experiment: nuclei count (viability) relative to DMSO (% of DMSO); higher = more viable cells; settings: 10 µM; 24 h
Procedure: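 Primary image-based screen in U2OS cells: compounds at 10 uM for 24 h, then a 1 h o-propargyl-puromycin (OPP) pulse, click labelling, and high-throughput microscopy. Mean cytoplasmic OPP intensity and nuclei count were normalised to DMSO wells within each plate (DMSO = 100) and averaged over triplicate plates.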

How did the nuclei count turn out when O=C1Nc2ccc(-c3cccnc3)cc2/C1=C/c1ccc[nH]1 [JAK3 Inhibitor VI] was run?
The nuclei count was 44.4.

O=C1NC(=O)c2c1c(-c1ccccc1)cc1[nH]c3ccc(O)cc3c21 was tested. Which nuclei count did it give?
Its nuclei count is 46.3.

Which nuclei count does the source give for Cc1ccccc1-n1c(Cn2nc(-c3cccc(O)c3)c3c(N)ncnc32)nc2cccc(C)c2c1=O here?
The nuclei count was 103.

CN1C2CCC1CC(OC(=O)C(O)c1ccccc1)C2 (stereo unspecified) [Homatropine Bromide] was tested. Which nuclei count did it give?
The nuclei count was 96.

With Cc1nc2c(-c3cnc(N)nc3)nc(N3CCOCC3)nc2n1C(C)C as the molecule, how does the nuclei count read?
Its nuclei count is 76.7.

For CN1[C@@H]2CC[C@H]1C[C@@H](OC(=O)C(O)c1ccccc1)C2 (mixture of isomers) [Homatropine hydrobromide (R,S)], which nuclei count is on record?
The nuclei count was 91.5.
